Percent effect of library compounds

The chains behind the UniProt entries cited, without tags or fusion partners. Residues count along the entry.
UniProt P9WPC5, whole entry: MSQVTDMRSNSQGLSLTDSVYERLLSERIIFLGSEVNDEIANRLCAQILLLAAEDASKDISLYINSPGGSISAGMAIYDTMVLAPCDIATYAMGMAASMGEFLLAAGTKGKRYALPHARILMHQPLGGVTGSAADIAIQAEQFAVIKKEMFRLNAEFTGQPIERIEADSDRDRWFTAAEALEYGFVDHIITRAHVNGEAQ
UniProt P9WPC3, whole entry partner: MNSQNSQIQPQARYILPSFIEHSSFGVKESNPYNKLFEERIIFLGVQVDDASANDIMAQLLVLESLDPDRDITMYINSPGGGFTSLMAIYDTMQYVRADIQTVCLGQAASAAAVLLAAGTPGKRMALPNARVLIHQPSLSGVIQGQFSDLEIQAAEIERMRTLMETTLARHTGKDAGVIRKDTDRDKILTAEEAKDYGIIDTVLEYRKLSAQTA
UniProt Q4DA54, 1-478: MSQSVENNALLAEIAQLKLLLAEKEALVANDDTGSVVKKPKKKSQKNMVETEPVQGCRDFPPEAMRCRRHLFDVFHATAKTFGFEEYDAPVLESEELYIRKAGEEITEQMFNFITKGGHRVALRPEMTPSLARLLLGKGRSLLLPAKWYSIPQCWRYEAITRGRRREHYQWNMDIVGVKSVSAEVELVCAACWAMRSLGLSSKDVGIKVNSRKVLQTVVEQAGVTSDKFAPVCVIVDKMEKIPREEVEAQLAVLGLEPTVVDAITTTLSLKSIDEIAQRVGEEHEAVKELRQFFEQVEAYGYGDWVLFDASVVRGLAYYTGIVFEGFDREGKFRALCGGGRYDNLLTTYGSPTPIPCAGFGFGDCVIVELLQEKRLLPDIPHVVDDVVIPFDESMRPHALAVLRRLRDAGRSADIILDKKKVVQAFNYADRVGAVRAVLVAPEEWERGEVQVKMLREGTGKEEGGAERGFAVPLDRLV
UniProt Q8IDJ8, 1-583: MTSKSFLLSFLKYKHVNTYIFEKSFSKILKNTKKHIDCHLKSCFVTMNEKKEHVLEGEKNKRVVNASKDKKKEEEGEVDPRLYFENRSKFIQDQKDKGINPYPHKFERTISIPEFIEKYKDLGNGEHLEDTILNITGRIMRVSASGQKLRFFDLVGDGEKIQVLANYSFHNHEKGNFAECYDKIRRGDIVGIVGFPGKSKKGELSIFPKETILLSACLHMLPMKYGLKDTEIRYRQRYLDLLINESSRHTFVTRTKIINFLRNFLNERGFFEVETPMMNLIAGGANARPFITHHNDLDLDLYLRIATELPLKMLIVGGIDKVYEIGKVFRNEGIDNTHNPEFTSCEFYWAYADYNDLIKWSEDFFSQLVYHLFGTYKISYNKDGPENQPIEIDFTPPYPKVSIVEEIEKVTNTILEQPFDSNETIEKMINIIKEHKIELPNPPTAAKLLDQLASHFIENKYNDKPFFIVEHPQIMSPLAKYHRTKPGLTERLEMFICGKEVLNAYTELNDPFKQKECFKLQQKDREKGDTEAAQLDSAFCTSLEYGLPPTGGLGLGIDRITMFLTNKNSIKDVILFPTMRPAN
UniProt P9WNZ1, whole entry: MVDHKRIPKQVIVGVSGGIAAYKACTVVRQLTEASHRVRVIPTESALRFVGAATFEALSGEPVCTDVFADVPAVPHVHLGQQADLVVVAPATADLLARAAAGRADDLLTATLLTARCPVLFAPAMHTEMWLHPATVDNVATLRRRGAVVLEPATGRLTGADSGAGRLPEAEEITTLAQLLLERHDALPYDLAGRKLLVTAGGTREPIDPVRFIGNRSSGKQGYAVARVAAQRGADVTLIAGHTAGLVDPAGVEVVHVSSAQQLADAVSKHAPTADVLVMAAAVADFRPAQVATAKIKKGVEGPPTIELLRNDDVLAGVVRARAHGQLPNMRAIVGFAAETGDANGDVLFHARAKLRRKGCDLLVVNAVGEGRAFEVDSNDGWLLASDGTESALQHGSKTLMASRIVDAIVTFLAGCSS
UniProt I6X8D2, whole entry: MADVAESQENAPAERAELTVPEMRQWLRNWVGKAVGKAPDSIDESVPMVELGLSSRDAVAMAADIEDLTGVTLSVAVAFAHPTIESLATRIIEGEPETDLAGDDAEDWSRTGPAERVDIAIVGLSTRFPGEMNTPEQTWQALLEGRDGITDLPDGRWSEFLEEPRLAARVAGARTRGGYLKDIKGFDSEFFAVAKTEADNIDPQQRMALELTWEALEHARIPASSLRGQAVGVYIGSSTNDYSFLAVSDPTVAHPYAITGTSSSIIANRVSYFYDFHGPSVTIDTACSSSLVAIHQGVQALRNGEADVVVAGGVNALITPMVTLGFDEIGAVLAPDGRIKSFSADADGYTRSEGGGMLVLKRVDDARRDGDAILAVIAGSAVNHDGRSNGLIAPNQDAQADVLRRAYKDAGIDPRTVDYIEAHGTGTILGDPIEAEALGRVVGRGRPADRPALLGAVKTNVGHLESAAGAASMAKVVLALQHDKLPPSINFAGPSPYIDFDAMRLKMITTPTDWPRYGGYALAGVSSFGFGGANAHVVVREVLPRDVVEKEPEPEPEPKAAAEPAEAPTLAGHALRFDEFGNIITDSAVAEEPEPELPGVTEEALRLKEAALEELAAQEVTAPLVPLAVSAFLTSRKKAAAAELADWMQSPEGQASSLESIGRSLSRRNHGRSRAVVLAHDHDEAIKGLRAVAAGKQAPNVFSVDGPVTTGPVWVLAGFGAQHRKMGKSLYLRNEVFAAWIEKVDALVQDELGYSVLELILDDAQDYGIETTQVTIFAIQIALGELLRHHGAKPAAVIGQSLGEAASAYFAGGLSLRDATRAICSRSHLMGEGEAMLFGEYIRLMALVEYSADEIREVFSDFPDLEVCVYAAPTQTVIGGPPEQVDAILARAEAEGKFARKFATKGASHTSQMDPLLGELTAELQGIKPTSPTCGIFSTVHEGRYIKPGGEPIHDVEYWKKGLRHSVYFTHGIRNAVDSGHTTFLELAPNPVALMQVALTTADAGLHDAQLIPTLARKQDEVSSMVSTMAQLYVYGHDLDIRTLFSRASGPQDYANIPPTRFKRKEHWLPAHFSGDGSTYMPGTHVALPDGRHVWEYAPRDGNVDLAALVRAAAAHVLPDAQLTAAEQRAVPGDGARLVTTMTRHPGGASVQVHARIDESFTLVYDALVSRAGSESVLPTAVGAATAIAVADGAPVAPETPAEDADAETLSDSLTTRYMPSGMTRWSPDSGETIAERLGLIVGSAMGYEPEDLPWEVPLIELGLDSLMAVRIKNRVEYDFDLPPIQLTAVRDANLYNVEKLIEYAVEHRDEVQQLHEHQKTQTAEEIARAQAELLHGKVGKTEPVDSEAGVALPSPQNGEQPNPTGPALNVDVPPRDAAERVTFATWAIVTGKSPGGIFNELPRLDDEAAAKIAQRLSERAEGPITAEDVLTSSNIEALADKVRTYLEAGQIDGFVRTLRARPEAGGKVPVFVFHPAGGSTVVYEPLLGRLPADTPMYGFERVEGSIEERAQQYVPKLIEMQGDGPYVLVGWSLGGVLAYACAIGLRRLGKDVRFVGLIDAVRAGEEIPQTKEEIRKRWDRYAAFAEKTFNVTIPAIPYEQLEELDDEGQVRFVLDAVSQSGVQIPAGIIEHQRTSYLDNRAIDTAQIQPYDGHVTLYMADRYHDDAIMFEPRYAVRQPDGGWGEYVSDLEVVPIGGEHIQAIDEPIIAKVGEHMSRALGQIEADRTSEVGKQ

Measurements from “University of Dundee, Small-Polar-MMV Screening Library” (2021), ChEMBL document CHEMBL3988442.

ClpP1P2: 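Protease assay of ClpP1P2, read by the AMC dye that it sets free. Target: ClpP1P2, Mycobacterium tuberculosis (UniProt P9WPC5 and UniProt P9WPC3). Concentration: 50 µM. Direction is inferred from only a few compounds that gave an IC50; most scored high, so higher reads as stronger inhibition. Most other retested compounds had strongly negative values. Size under these conditions: about 69,000 compounds, about 10 of them at 50% or above in at least one test.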
TcHisRS: 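Histidine-tRNA ligase, Trypanosoma cruzi CL Brener (UniProt Q4DA54). Enzyme assay of histidyl-tRNA synthetase; the read-out is not stated. Tested at 30 µM. The record gives no direction; compounds that gave an IC50 in retests scored well above the rest, so higher reads as stronger inhibition. Of about 69,000 compounds tested this way, about 31 (0.045%) reached 50% or more in at least one test.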
PfKRS1: 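Lysine-tRNA ligase, Plasmodium falciparum 3D7 (UniProt Q8IDJ8). Enzyme assay of the cytosolic lysyl-tRNA synthetase in 384-well plates, read by luminescence. Tested at 30 µM. Direction is inferred from only a few compounds that gave an IC50; most scored high, so higher reads as stronger inhibition. About 69,000 compounds were tested under these conditions; 0.071% (about 49) showed 50% or more at least once.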
CoaBC: 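Coenzyme A biosynthesis protein CoaBC, Mycobacterium tuberculosis (UniProt P9WNZ1). Enzyme assay of CoaBC with a phosphate dye (Biomol Green) read at 650 nm. Compounds at 30 µM. Higher reads as stronger inhibition, judged from the few compounds that gave an IC50. Most strong results did not repeat in a second test. Of about 67,000 compounds tested this way, about 40 (0.06%) reached 50% or more in at least one test.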
Leishmania in macrophages: 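Cell assay of Leishmania donovani living inside macrophages; the read-out is not stated. Tested at 30 µM. Higher reads as stronger inhibition (inferred: compounds with an IC50 in retests scored well above the rest). About 69,000 compounds were tested under these conditions; 1.5% (about 1,000) showed 50% or more at least once.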
Pks13 thioesterase: 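Enzyme assay of the thioesterase domain of polyketide synthase 13; the read-out is not stated. Target: Polyketide synthase Pks13, Mycobacterium tuberculosis (UniProt I6X8D2). Concentration: 30 µM. The record gives no direction; the compounds picked for IC50 retests had high values, so higher reads as stronger inhibition. Size under these conditions: about 67,000 compounds, about 300 of them at 50% or above in at least one test.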

Values are the deposited “Percent Effect”, in %.
The record does not define 0% and 100%; most values in the screen are far below 50% and negative numbers occur (in some assays of this library far below -100).
The compounds are a random part of those screened.
Two or more numbers in one place are separate tests of the same structure; such repeats can differ widely.
A dash means the value is not listed here; it may have been measured.

compound,ClpP1P2,TcHisRS,PfKRS1,CoaBC,Leishmania in macrophages,Pks13 thioesterase
COCCCNc1ncc(-c2cccc(F)c2)c(-c2nccn2C)n1,-23.88%,2.682%,-0.1752%,-1.699%,17.55%,11.37%
O=C(NCc1cc(-c2ccccc2)no1)NC1CCCCNC1=O (configuration not stated),-1.119%,3.704%,6.11%,5.765%,36.72%,-10.9%
Cc1ccc(CN2CC[C@@H](O)[C@@H]2Cc2ccccc2)o1,-5.614%,8.861%,-4.458%,-,-,16.99%
CCc1nc(CC(=O)N2CCC(C(=O)N(CC)CC)CC2)cs1,-5.595%,3.158%,3.561%,-0.7968%,-0.9481%,-10.48%
Cc1ccccc1CN(CCN(C)C)C(=O)c1ccc2nccn2c1,-5.017%,3.665%,0%,8.436%,10.21%,-28.7%
CC(C)N1CCCC(C(=O)N2CCN(c3nsc4ccccc34)CC2)C1 (configuration not stated),-7.313%,0.4975%,3.889%,4.444%,77.99%,-2.9%
Cc1cc(C(=O)NCc2c(C)nn(C)c2C)nc(N2CCOCC2)n1,-3.947%,0%,2.482%,3.353%,19.91%,-9.062%
Cc1ccccc1COCCOCn1c(C)cc(=O)[nH]c1=O,-9.871%,0%,-1.925%,-0.6075%,-8.299%,-9.946%
COc1ccccc1C(=O)N(C)C1CCN(c2ccccn2)CC1,-35.36%,6.706%,-1.544%,5.222%,1.247%,-10.77%
CC1COCCN1C(=O)COc1ccc(Oc2ccccn2)cc1 (configuration not stated),-1.243%,7.921%,4.778%,5.711%,-10.63%,-2.448%
COCCN1C[C@H]2CC[C@@H]1CN(C(=O)CCc1c(C)nn(C)c1C)C2,-4.063%,13.1%,2.437%,-0.3686%,-,4.898%
Cc1ccc2cc(CNCCN3CCCC3)c(=O)[nH]c2c1,0.3629%,11.11%,2.515%,1.937%,10.28% and 5.806%,20.85%
CN(C(=O)Nc1ccncc1)C1CCN(c2ccccc2)C1=O (configuration not stated),-7.158%,2.941%,-0.6004%,1.279%,6.843%,-12.01%
COC(=O)c1occc1Cn1cc(Br)cn1,0.9575%,4.762%,5.594%,-4.175%,3.503%,-9.508%
Cc1ccc(NC(=O)c2nc3c(s2)CCCN3C(=O)C2CC2)cn1,-2.314%,1.149%,2.046%,5.123%,-,56.31%
Cc1nc(C)n(CC2CCCN(Cc3cccc(C(N)=O)c3)C2)n1 (configuration not stated),-10.76%,4.07%,-2.363%,10.09%,34.89%,-4.566%
Cc1cc(N2CCOCC2)ccc1NC(C)c1nc(C(C)(C)C)no1 (configuration not stated),20.8%,14%,2.675%,2.179%,21.75%,-7.317%
CCN(CC)S(=O)(=O)c1ccc(CNC(=O)N2CCC(C#N)CC2)cc1,4.369%,8.333%,2.768%,3.719%,7.806%,-11.85%
COc1ccc(Cc2ncc3c(n2)CN(C(=O)CN(C)C)C3)cc1,0.5383%,2.618%,1.409%,-5.967%,34.51%,-21.91%
CCS(=O)(=O)N1CCC(NC(=O)c2cc(C)ccc2O)CC1,-22.89%,7.331%,0.9169%,-1.579%,30.65%,7.278%
Clc1ccccc1CNC(Cn1cncn1)c1ccccc1 (configuration not stated),-5.992%,2.703%,-3.176%,-4.091%,0.2336%,-0.02251%
O=C(O)C(F)(F)F.[H][C@@]12CCCO[C@]1([H])[C@H](NC(=O)CC1CC1)CN(Cc1csc(C)n1)C2,-,-,-,-,13.13%,-
COC(=O)C1CCN(C(=O)c2cccc(NS(C)(=O)=O)c2C)CC1,-7.195%,0.5025%,0.5025%,-3.739%,17.14%,4.675%
CCn1cnnc1CNC(=O)C1COc2ccc(Cl)cc2C1 (configuration not stated),4.042%,7.895%,-0.323%,-,16.14%,-28.49%
Cl.Cn1ccnc1CNC(=O)c1cnc(C2CCNCC2)cn1,-,-,-,-,1.196%,-
Cc1csc2ncnc(N3CCC(Cn4cc(C(C)(C)O)nn4)CC3)c12,-19.06%,4.972%,0.5694%,7.767%,44.84%,-5.278%
O=C(O)c1ccn(COc2c(Cl)cccc2Cl)n1,-19.83%,5.804%,0.5963%,1.531%,-15.73%,-7.099%
Cc1nc(CN2CCCC(NCCOc3ccccc3)C2)no1 (configuration not stated),-1.955%,6.015%,5.013%,-5.656%,33.1%,-35.67%
Fc1cnc(N2CCCC3(CCN(Cc4nccs4)C3)C2)nc1 (configuration not stated),16.22%,4.202%,-3.46%,-3.043%,3.418%,-10.6%
Cc1cnn(C2CCCN(C(=O)c3cc(-c4ccco4)[nH]n3)C2)c1 (configuration not stated),-1.575%,13.94%,-1.051%,2.19%,16.08%,-27.03%
CC(C)C(=O)N1CCN(Cc2csc(-c3ccccn3)n2)CC1,11.64%,10%,-1.235%,7.025%,8.752%,1.56%
[H][C@]12CC[C@@]3(N=C(C)N(CC(C)C)C3=O)[C@@]1([H])CN(S(=O)(=O)N(C)C)C2,-,-,-,-,-17.85%,-
COc1ccc(CC(=O)N2CCC(c3nnc4n3CCC4)CC2)cc1F,-8.185%,3.093%,3.136%,1.711%,28.81%,2.118%
Cc1cc(C)nc(Nc2cc(C3CCCN(C)C3)nc(C)n2)n1 (configuration not stated),-0.7701%,-0.5405%,0.9875%,8.889%,-,-35.76%
NC1(CN2CCCCC2)CCCCC1,-8.855%,0.7692%,1.714%,2.85%,-14.65%,-
CCOc1cc(CN(C)CCCO)ccc1OC(F)F,-20.6%,0.4484%,-0.1197%,3.046%,6.953%,-5.342%
Cc1ncsc1CN1CCn2c(COCC3CC3)cnc2C1C.O=C(O)C(F)(F)F (configuration not stated),-,-,-,-,14.27%,-
O=C(c1ccc(O)c(Cl)c1)N(Cc1ccncc1)C1CC1,-8.847%,4.712%,0.3231%,-3.64%,2.033%,-24.72%
Cc1nc(NC(=O)CN2C(=O)c3ccccc3NC2C(C)C)sc1C (configuration not stated),-443.2%,6.931%,-0.2038%,4.496%,3.973%,19.83%
CN(Cc1cnn(C)c1)C(=O)c1cc(C(F)(F)F)n(C)n1,-8.95%,4.969%,4.556%,2.405%,-12.57%,-1.098%
c1nc(N2CCOCC2)nc2c1COCC21CCN(CC2CC2)C1 (configuration not stated),12.78%,0%,3.184%,4.762%,11.54%,6.124%
Cc1nc(NC(=O)C2(C)CN(C)CCO2)sc1C.Cl (configuration not stated),-,-,-,-,1.58%,-
[H][C@@]12CN(CC3CC3)C[C@]1([H])N(Cc1ccccc1OC)C(=O)O2,-,-,-,-,18%,-
O=C1OC2(CCN(C(=O)C3NCCc4[nH]cnc43)CC2)c2ccccc21 (configuration not stated),-0.7053%,4%,0.8933%,3.68%,1.23%,-22.16%
Cc1noc2ncc(C(=O)NCC3CCN(C(C)C)C3)cc12 (configuration not stated),-11.15%,-0.3802%,-0.08489%,1.862%,-13.98%,-10.48%
CCC(=O)Nc1c(C)nn(COc2cccc(F)c2)c1C,-25.41%,3.125%,7.007%,1.02%,14.64%,-5.065%
c1ccc2c(c1)CC(N1CCCC(NCc3ccc4nonc4c3)C1)C2 (configuration not stated),-19.59%,0%,6.337%,-4.878%,16.27%,4.019%
[H][C@]12CN(C(=O)C3CC3)CCN1C[C@@H](C(N)=O)[C@@H]2c1ccccc1,-,-,-,-,0.4411%,-
CC(C)c1[nH]c2ncccc2c1CN1CCOCC1,19.99%,7.752%,1.23%,-6.748%,-,-1.751%
COc1ccc(CC(=O)N2CCCC2c2nc(C)c(C)c(O)n2)cc1 (configuration not stated),5.547%,3.731%,-1.129%,2.433%,9.925% and 20.06%,4.246%
COCCN1CCN(C(=O)C(c2cccc(F)c2)N(C)C)CC1 (configuration not stated),-1.869%,8.333%,6.881%,-2.58%,8.554%,7.019%
Cn1ccnc1SCc1nc(C(C)(C)NC(=O)OC(C)(C)C)no1,-12.89%,-0.4149%,-2.336%,8.036%,-1.785%,-14.17%
CCCNCc1cc2c(C)cc(C)cc2n2c(=O)n(C)nc12,-35.58%,0.5405%,5.305%,3.611%,14.54%,33.44%
COCCN1CCC2(C1)CN(c1ncc(F)cn1)C2,-0.9915%,5.747%,1.543%,-19.06%,-,-17.46%
CC(C)(CNC(=O)NCCc1ccn(-c2ccccc2)n1)C(N)=O,-15.28%,2.564%,0.6029%,-5.898%,-1.821%,-7.128%

The last 6 entries again:

compound	ClpP1P2	TcHisRS	PfKRS1	CoaBC	Leishmania in macrophages	Pks13 thioesterase
COc1ccc(CC(=O)N2CCCC2c2nc(C)c(C)c(O)n2)cc1 (configuration not stated)	5.547%	3.731%	-1.129%	2.433%	9.925% and 20.06%	4.246%
COCCN1CCN(C(=O)C(c2cccc(F)c2)N(C)C)CC1 (configuration not stated)	-1.869%	8.333%	6.881%	-2.58%	8.554%	7.019%
Cn1ccnc1SCc1nc(C(C)(C)NC(=O)OC(C)(C)C)no1	-12.89%	-0.4149%	-2.336%	8.036%	-1.785%	-14.17%
CCCNCc1cc2c(C)cc(C)cc2n2c(=O)n(C)nc12	-35.58%	0.5405%	5.305%	3.611%	14.54%	33.44%
COCCN1CCC2(C1)CN(c1ncc(F)cn1)C2	-0.9915%	5.747%	1.543%	-19.06%	-	-17.46%
CC(C)(CNC(=O)NCCc1ccn(-c2ccccc2)n1)C(N)=O	-15.28%	2.564%	0.6029%	-5.898%	-1.821%	-7.128%